This note sets out measurements from PMC7819943, “Rice protein-binding microarrays: a tool to detect cis-acting elements near promoter regions in rice”.

This is one part of the list.

The target of this test is T1, OsSMF1 (Oryza sativa, UniProt Q6ZLB0 1-436).
T1 sequence: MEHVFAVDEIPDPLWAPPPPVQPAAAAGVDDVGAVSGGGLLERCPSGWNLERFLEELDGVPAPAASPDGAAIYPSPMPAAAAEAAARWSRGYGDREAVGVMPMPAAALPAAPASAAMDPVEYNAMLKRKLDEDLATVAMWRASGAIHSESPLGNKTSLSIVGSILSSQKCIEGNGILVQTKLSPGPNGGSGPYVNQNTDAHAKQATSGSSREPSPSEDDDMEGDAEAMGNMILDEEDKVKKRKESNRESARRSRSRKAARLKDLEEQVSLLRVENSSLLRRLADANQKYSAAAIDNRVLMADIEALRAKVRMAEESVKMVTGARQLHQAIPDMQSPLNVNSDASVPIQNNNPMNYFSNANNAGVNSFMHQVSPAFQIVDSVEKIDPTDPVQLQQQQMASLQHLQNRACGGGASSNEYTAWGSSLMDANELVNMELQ
Put plainly: protein-binding microarray (RPBM); PBS, 2% BSA, 51.3 ng/ul salmon testes DNA, 50 uM zinc acetate, 200 nM TF, 25 C, 1 h; high values mean tight binding. The following applies: protein: recombinant; tags: N-terminal polyhistidine and DsRed monomer fusion (pET32a); chain copies: 2; label: CyDye5-dUTP incorporated in the synthesized complementary strand; 3' TTTTT single-stranded linker to array surface; dsDNA, one strand shown. The method in brief: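 The binding signal for each feature is its fluorescence intensity in arbitrary units. An Axon 4000B scanner was used to read a custom Agilent array that had been made double-stranded with Cy5-dUTP primer extension, blocked with 2% BSA, incubated at 25 °C for 1 h with 200 nM protein in PBS, 2% BSA, salmon testes DNA and 50 µM zinc acetate, and washed. The protein was an N-terminal polyhistidine–DsRed transcription factor fusion from E. coli BL21-CodonPlus, purified on Ni–NTA.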
For the sequence “GGATATTGTCGAGAAGGTCCCCGACACTTGGACCGTGACGCGGAGTCACCTAGTGCAG”, the binding signal was 3210 fluorescence intensity (a.u.).
Then “CTAGATACCATACTAACATCATGATGATGTCGACAAACATCGGAGTCACCTAGTGCAG”, with 3500 fluorescence intensity (a.u.); and “TGCCATCTTGACCCACATGTCATTGGGTTCTATATGCCATCGGAGTCACCTAGTGCAG”, with 3290 fluorescence intensity (a.u.).
Then “CTTCACTGCATCCAGCTCCACGCCCACGAACCTGTTGGTGCGGAGTCACCTAGTGCAG”, with 3820 fluorescence intensity (a.u.).
For “CACCTTCTGTTGCATAAAGACAATGATCACTGACATCAGGCGGAGTCACCTAGTGCAG” the value was 3480 fluorescence intensity (a.u.); for “CTAGCAGACACTCTGTTCTGCTAAATATACCACACACACACGGAGTCACCTAGTGCAG”, 3550 fluorescence intensity (a.u.); for “AGCTAGCTAGCTAACTAGTAAGGAGGTACACGTAGGTAGCCGGAGTCACCTAGTGCAG”, 6960 fluorescence intensity (a.u.).
As to “TTCTCAGCCAGCGTCATCGTCAAACGGACGTTGGTAGGCCCGGAGTCACCTAGTGCAG”, the binding signal was 3610 fluorescence intensity (a.u.).
Then “CGCGCGCGCCCGGCGTCCACGTGTATATATAACCCGCCACCGGAGTCACCTAGTGCAG”, with 9940 fluorescence intensity (a.u.); and “TGCAACCACAGGCGAAGCCACGTCGGGCGTGTCAAATTGTCGGAGTCACCTAGTGCAG”, with 8970 fluorescence intensity (a.u.).
For “AGAAGTTGAATTTTGATATATTTTATATTAATCTGTGTTGCGGAGTCACCTAGTGCAG” the value was 17800 fluorescence intensity (a.u.).
Regarding “TTGAAACTGTGCATGCGCATCACCTTCATGCCCAAAATTTCGGAGTCACCTAGTGCAG”, the binding signal is 3160 fluorescence intensity (a.u.).
On to “TTCTCGCGGCGGTGGCGGAACGGTCACTTCTCTTCTTCACCGGAGTCACCTAGTGCAG”, for which the binding signal is 4330 fluorescence intensity (a.u.).
For “TTCTGGTTCTTGGACTCCCTGTTCTTGGTTCCTGCATTTCCGGAGTCACCTAGTGCAG” the value was 4060 fluorescence intensity (a.u.); for “CACGTGGGCCCCACCACCCCTGGCCCCACGTGTCAGCGAGCGGAGTCACCTAGTGCAG”, 10700 fluorescence intensity (a.u.).
For “TTAAGGTAATGAGCCCTATCTGATGTCAGTGGGGATTGTTCGGAGTCACCTAGTGCAG” the value was 7560 fluorescence intensity (a.u.); for “TCCAGGTGGGAAGAGTTGTTGGTGTGTCAGGTTGTCCAATCGGAGTCACCTAGTGCAG”, 4160 fluorescence intensity (a.u.).
Then “GCAGTCTTGTAGTCTCGTGCACCAATCGTCGCGCCGCGGCCGGAGTCACCTAGTGCAG”, with 22300 fluorescence intensity (a.u.).
In the case of “CTTCTCTTCGACCACGCGAACACCTATCCATTCTGTGAGGCGGAGTCACCTAGTGCAG”, the binding signal is 3160 fluorescence intensity (a.u.).
Regarding “CGGTCCTTTTCTGCTTTGGTTGGTTCGCCTCTTATATCCTCGGAGTCACCTAGTGCAG”, the binding signal was 24700 fluorescence intensity (a.u.).
Then “CGCGCCTTCGCGAGATTCCCTCGGGTTTGGGCGGGACCGTCGGAGTCACCTAGTGCAG”, with 3230 fluorescence intensity (a.u.).
In the case of “TTTCGCGGGTAAACGAGCAAAGCGGGCATGGGTAGTGATTCGGAGTCACCTAGTGCAG”, the binding signal was 3550 fluorescence intensity (a.u.).
For the sequence “CTCCTTAACCTGCTCCATCAGCGCACCCCACACGCACTTCCGGAGTCACCTAGTGCAG”, the binding signal is 3490 fluorescence intensity (a.u.).
“ACTACACTACACAGATTTCAGCCCGGTCAGGTGATTCGTTCGGAGTCACCTAGTGCAG”: the binding signal was 3220 fluorescence intensity (a.u.).
For the sequence “TATGCACTCAGAATTCGTAATGTTTAAAATTGCCTGCAAACGGAGTCACCTAGTGCAG”, the binding signal was 3150 fluorescence intensity (a.u.).
In the case of “ATTCCGTGGATTATACCGTTAAAGATCAGCTGATGTATTCCGGAGTCACCTAGTGCAG”, the binding signal was 3350 fluorescence intensity (a.u.).
For “CGGCGGAGTGGCCGGCCGAGTGGGGATGCGGGGTGGCGCGCGGAGTCACCTAGTGCAG” the value was 3500 fluorescence intensity (a.u.).
With “CGGCCGTCCGCCCGAGATCTCCCTCTCCCACCGCGCGTTTCGGAGTCACCTAGTGCAG”, the binding signal is 3380 fluorescence intensity (a.u.).
In the case of “AGAAGGGGAGAAAAGGAAACCGATCTCGGTCATGGCCACGCGGAGTCACCTAGTGCAG”, the binding signal is 50900 fluorescence intensity (a.u.).
For the sequence “GCATGCTCTCCGTGCCGTATGCGCTGTCGTAGGGCAGGTGCGGAGTCACCTAGTGCAG”, the binding signal is 3760 fluorescence intensity (a.u.).
For “CCCTGGCCCACCCGCGCCACCGTGGACGCCGCGCTTACCGCGGAGTCACCTAGTGCAG” the value was 4250 fluorescence intensity (a.u.); for “CTACTTGATTAATCATAATAATATACTCAATCTTTGTTTTCGGAGTCACCTAGTGCAG”, 3800 fluorescence intensity (a.u.).
For the sequence “GGGCCCTTCGCCTCCACCTCCACCTCCACCTCCGCCGCGACGGAGTCACCTAGTGCAG”, the binding signal was 3690 fluorescence intensity (a.u.).
Turning to “AATGGGGTTGGTCGTATCTATCGTAGGTGGATTATTTACCCGGAGTCACCTAGTGCAG”, the binding signal is 3470 fluorescence intensity (a.u.).
For “AATGGTGGGCCCCACGTGGACCCCACCTGTCATCCTCGCTCGGAGTCACCTAGTGCAG” the value was 7490 fluorescence intensity (a.u.); for “TTGGATCACTCAATAAATTTAATGCATGTAACCGATAGGACGGAGTCACCTAGTGCAG”, 23600 fluorescence intensity (a.u.).
In the case of “GATTCCGCAGAACAGTTCGAGTTGACCAATATTATATAGTCGGAGTCACCTAGTGCAG”, the binding signal is 20500 fluorescence intensity (a.u.).
Then “TATAGATGGACTAAATCAACGTGCCACGTCAATGAAACTACGGAGTCACCTAGTGCAG”, with 10500 fluorescence intensity (a.u.); and “CTCCTTCATCTGATCTGTCACTGACATCGCGGGCCCACAACGGAGTCACCTAGTGCAG”, with 7660 fluorescence intensity (a.u.).
With “TCCTCCTCCTCCTCAAACCCGTCGTCATCGTCGTCGTTGTCGGAGTCACCTAGTGCAG”, the binding signal was 5220 fluorescence intensity (a.u.).
“GTATTACCTCAGCTGCAAAGGCTATACGTAGGCTGCGAGACGGAGTCACCTAGTGCAG”: the binding signal is 3220 fluorescence intensity (a.u.).
Then “TAAATTTTAATTTTCTGATTGGTATGCCACGTTAGTGAAACGGAGTCACCTAGTGCAG”, with 3420 fluorescence intensity (a.u.).
